The list does not hold the whole screen: it gathers tests that were run many times, whatever their T/C, doses with no T/C, and many T/C values between a quarter and a half above the control. Other doses and runs of a compound stand elsewhere. T/C is the treated group as % of the vehicle group. Schedule codes are those of the source, read here as Q, the interval in days (D) or hours (H), X, the number of doses. Some T/C values are followed by the survivors on the day toxicity was checked, most often the fifth; where none is given, no animal had died by that day. Some doses have a count of surviving animals in place of a T/C: the source files T/C as zero there, which appears to mark a toxic dose or a test without result, not a measured value. Survivors were counted at the toxicity check, usually on the fifth day, unless a day is given; later deaths do not show.
System: HT29 intrarenal xenograft, nude mice, tumor weight change
Experiment: NCI In Vivo Anticancer Drug Screen. Data for tumor model HT29;CX-1 Human Adenocarcinoma (MER+) (intrarenal inoculation) in NU/NU BALB/C (nude) mice
Settings: T/C endpoint: mean tumor weight change, higher T/C = larger tumour
Protocol: The antitumor activity of compounds was measured in mice bearing transplantable tumors. Survival or tumor size were measured and the results are expressed as the measurement made in the treated group (T) divided by the measurement made in the vehicle treated control group (C). The tumor model used in this assay is HT29;CX-1 Human Adenocarcinoma (MER+) (intrarenal inoculation) in NU/NU BALB/C (nude) mice

[1] = dose: 400.0 mg/kg/injection, schedule: Q01DX010 (sc), vehicle: saline with Tween-80
[2] = dose: 300.0 mg/kg/injection, schedule: Q04DX004 (sc), vehicle: saline
[3] = dose: 600.0 mg/kg/injection, schedule: Q04DX004 (sc), vehicle: saline

With `CCCC(=O)O.CCCC(=O)O.CCCC(=O)O.CCCC(=O)O.[Rh].[Rh]` as the compound, how does the survivor count (dose: 16.0 mg/kg/injection, schedule: Q04DX004 (sc), vehicle: suspension in saline) read?
The survivor count was 2 of 6 on day 15.

What about the survivor count (dose: 32.0 mg/kg/injection, schedule: Q04DX004 (sc), vehicle: suspension in saline) of the same compound?
The survivor count was 0 of 6 on day 15.

Which survivor count (dose: 1600.0 mg/kg/injection, schedule: Q04DX004 (sc), vehicle: saline with Tween-80) does the source give for `Nc1nnc[se]1` here?
Its survivor count is 1 of 6 on day 15.

How did the survivor count (dose: 600.0 mg/kg/injection, schedule: Q04DX004 (sc), vehicle: saline with Tween-80) turn out when `CCNC(C)(C)C(SSS)c1ccco1` (stereo unspecified) was run?
The survivor count was 0 of 6 on day 15.

For `CCOC(=O)C(N)CSC(=O)NC` (stereo unspecified), which survivor count (dose: 1200.0 mg/kg/injection, schedule: Q04DX004 (ip), vehicle: saline) is on record?
The survivor count was 3 of 6 on day 15.

And the survivor count (dose: 1200.0 mg/kg/injection, schedule: Q04DX004 (sc), vehicle: saline)?
The survivor count was 2 of 6 on day 15.

How did the T/C (dose: 100.0 mg/kg/injection, schedule: Q04DX004 (sc), vehicle: saline, evaluated on day 15) turn out when `NC(=O)c1ccc[n+](Cc2c(Cl)cccc2Cl)c1` was run?
The T/C was 127 % of control.

What does the source list for `c1ccc2c(c1)nnn1c3cnccc3nc21`?
survivor count (dose: 200.0 mg/kg/injection, schedule: Q01DX010 (sc), vehicle: saline with Tween-80): 0 of 3 on day 11; survivor count [1]: 0 of 3 on day 11

With `CNc1nc(NC)nc(NC)n1` as the compound, how does the survivor count (dose: 400.0 mg/kg/injection, schedule: Q01DX010 (sc), vehicle: Klucel (hydroxypropylcellulose) (HPC)) read?
Its survivor count is 0 of 2 on day 11.

`CN(C)c1nc(N(C)C)nc(N(C)C)n1` was tested. Which survivor count [1] did it give?
Its survivor count is 0 of 2 on day 11.

How did the survivor count (dose: 1.0 mg/kg/injection, schedule: Q04DX004 (sc), vehicle: Klucel (hydroxypropylcellulose) (HPC)) turn out when `CO[C@H](/C(C)=C/C=C/C(C)=C/c1coc(C)n1)[C@H](C)[C@H]1C[C@@H](O)[C@@]2(C)O[C@H]2/C=C/[C@@H](C)[C@@H]2C[C@@H](CC(=O)O2)C[C@H]2O[C@@H]2C(=O)O1` was run?
Its survivor count is 1 of 6 on day 15.

For `CCc1ccc(C2=C(O)C(=O)C(c3ccc(CC)cc3)=C(O)C2=O)cc1`, which survivor count (dose: 800.0 mg/kg/injection, schedule: Q04DX004 (sc), vehicle: saline with Tween-80) is on record?
The survivor count was 0 of 6 on day 15.

How did the T/C (dose: 1.5 mg/kg/injection, schedule: Q04DX004 (sc), vehicle: saline with Tween-80, evaluated on day 15) turn out when `CC[C@@]1(O)C(=O)OCc2c1cc1n(c2=O)Cc2cc3ccccc3nc2-1` was run?
The T/C was 148 % of control.

And the survivor count (dose: 32.0 mg/kg/injection, schedule: Q04DX004 (sc), vehicle: saline with Tween-80)?
Its survivor count is 0 of 6 on day 15.

And the survivor count (dose: 48.0 mg/kg/injection, schedule: Q04DX004 (sc), vehicle: saline with Tween-80)?
Its survivor count is 0 of 6 on day 15.

And the survivor count (dose: 64.0 mg/kg/injection, schedule: Q04DX004 (sc), vehicle: saline with Tween-80)?
Its survivor count is 3 of 6 on day 15.

Which survivor count (dose: 4.0 mg/kg/injection, schedule: Q01DX010 (ip), vehicle: water) does the source give for `CC[C@@]1(O)C[C@H](OC2CC(N(C)C)C(OC3CC(O)C(OC4CCC(=O)C(C)O4)C(C)O3)C(C)O2)c2c(cc3c(c2O)C(=O)c2c(O)cccc2C3=O)[C@H]1C(=O)OC` (stereo partly specified) here?
Its survivor count is 0 of 6 on day 11.

And the survivor count (dose: 8.0 mg/kg/injection, schedule: Q01DX010 (ip), vehicle: water)?
Its survivor count is 0 of 6 on day 11.

With `O=C(O)C1(NO)CCCCC1` as the compound, how does the T/C (dose: 800.0 mg/kg/injection, schedule: Q04DX004 (sc), vehicle: Klucel (hydroxypropylcellulose) (HPC), evaluated on day 15) read?
Its T/C is 134 % of control.

How did the T/C (dose: 50.0 mg/kg/injection, schedule: Q01DX010 (sc), vehicle: saline, evaluated on day 11) turn out when `C(CSC1=NCCN1)CSC1=NCCN1` was run?
The T/C was 127 % of control.

Which results are given for `CC(C)CC(NC(=O)CF)C(=O)O` (stereo unspecified)?
survivor count (dose: 40.0 mg/kg/injection, schedule: Q04DX004 (sc), vehicle: saline): 3 of 6 on day 15; survivor count (dose: 80.0 mg/kg/injection, schedule: Q04DX004 (sc), vehicle: saline): 0 of 6 on day 15

Which survivor count (dose: 200.0 mg/kg/injection, schedule: Q04DX004 (sc), vehicle: Klucel (hydroxypropylcellulose) (HPC)) does the source give for `CN(C)N=Nc1cccc(C(N)=O)c1` here?
Its survivor count is 0 of 6 on day 15.

For `C[C@@H]1C[C@H]2[C@@H]3CCC4=CC(=O)C=C[C@]4(C)[C@@]3(F)[C@@H](O)C[C@]2(C)[C@@]1(O)C(=O)CO`, which survivor count (dose: 25.0 mg/kg/injection, schedule: Q01DX010 (sc), vehicle: Klucel (hydroxypropylcellulose) (HPC)) is on record?
The survivor count was 0 of 3 on day 11.

And the survivor count (dose: 50.0 mg/kg/injection, schedule: Q01DX010 (sc), vehicle: Klucel (hydroxypropylcellulose) (HPC))?
The survivor count was 0 of 3 on day 11.

What about the survivor count (dose: 100.0 mg/kg/injection, schedule: Q01DX010 (sc), vehicle: Klucel (hydroxypropylcellulose) (HPC)) of the same compound?
The survivor count was 0 of 3 on day 11.

And the survivor count (dose: 200.0 mg/kg/injection, schedule: Q01DX010 (sc), vehicle: Klucel (hydroxypropylcellulose) (HPC))?
The survivor count was 0 of 3 on day 11.

How did the T/C (dose: 0.62 mg/kg/injection, schedule: Q04DX004 (sc), vehicle: saline, evaluated on day 15) turn out when `Cc1ccc(S(=O)(=O)N/N=C/C(Br)=C(/Br)C(=O)O)cc1` was run?
The T/C was 138 % of control.

Which survivor count (dose: 75.0 mg/kg/injection, schedule: Q04DX004 (sc), vehicle: saline) does the source give for `CC1=C(O)C(=O)[C@@H]2O[C@@H]2C1=O` here?
The survivor count was 1 of 6 on day 15.

What about the survivor count (dose: 150.0 mg/kg/injection, schedule: Q04DX004 (sc), vehicle: saline) of the same compound?
The survivor count was 0 of 6 on day 15.

What about the survivor count [2] of the same compound?
The survivor count was 0 of 6 on day 15.

With `O=C1OC(C(O)CO)C(O)=C1O` (stereo unspecified) as the compound, how does the T/C (dose: 1600.0 mg/kg/injection, schedule: Q01DX010 (sc), vehicle: saline, evaluated on day 11) read?
Its T/C is 142 % of control [2 of 3 alive on day 11].

What about the survivor count (dose: 3200.0 mg/kg/injection, schedule: Q01DX010 (sc), vehicle: saline) of the same compound?
Its survivor count is 0 of 3 on day 11.

With `CN(C)c1ccc2c(NCCCCCCNc3ccnc4cc(N(C)C)ccc34)ccnc2c1` as the compound, how does the survivor count (dose: 300.0 mg/kg/injection, schedule: Q04DX004 (sc), vehicle: distilled water + Tween-80 + alcohol) read?
Its survivor count is 0 of 6 on day 15.

Which T/C (dose: 75.0 mg/kg/injection, schedule: Q04DX004 (sc), vehicle: saline, evaluated on day 15) does the source give for `CCCCCCCCCCCCCCCCCCOCC(COP(=O)([O-])OCC[N+](C)(C)C)OC` (stereo unspecified) here?
Its T/C is 129 % of control.

What about the survivor count [2] of the same compound?
The survivor count was 0 of 6 on day 15.

And the survivor count [3]?
Its survivor count is 0 of 6 on day 15.

`CN(C)CCC(=O)C(=Cc1ccc(O)cc1)C(=O)CCN(C)C` was tested. Which survivor count (dose: 300.0 mg/kg/injection, schedule: Q04DX004 (ip), vehicle: saline) did it give?
Its survivor count is 0 of 6 on day 15.

And the survivor count (dose: 600.0 mg/kg/injection, schedule: Q04DX004 (ip), vehicle: saline)?
The survivor count was 0 of 6 on day 15.

With `C1OC1CO[C@@H]1CO[C@H]2[C@@H]1OC[C@H]2OCC1CO1` (stereo partly specified) as the compound, how does the survivor count [1] read?
The survivor count was 0 of 3 on day 11.

Which survivor count [3] does the source give for `Oc1ccc(CCl)c2cccnc12` here?
Its survivor count is 2 of 6 on day 15.

Which T/C (dose: 300.0 mg/kg/injection, schedule: Q04DX004 (ip), vehicle: suspension in saline, evaluated on day 15) does the source give for `NC(=O)CCC(N)C(=O)O` (stereo unspecified) here?
Its T/C is 143 % of control.

Which results are given for `Nc1ccc(S(=O)(=O)Nc2cnc3c(Cl)cccc3n2)cc1`?
T/C (dose: 150.0 mg/kg/injection, schedule: Q04DX004 (ip), vehicle: DMSO, evaluated on day 15): 149 % of control; T/C (dose: 600.0 mg/kg/injection, schedule: Q04DX004 (ip), vehicle: DMSO, evaluated on day 15): 125 % of control; survivor count (dose: 1200.0 mg/kg/injection, schedule: Q04DX004 (ip), vehicle: DMSO): 3 of 6 on day 15

How did the survivor count (dose: 96.0 mg/kg/injection, schedule: Q01DX010 (sc), vehicle: saline) turn out when `OCCOCCN1CCN(CCCN2c3ccccc3Sc3ccc(C(F)(F)F)cc32)CC1` was run?
Its survivor count is 0 of 3 on day 11.

How did the survivor count (dose: 300.0 mg/kg/injection, schedule: Q04DX004 (sc), vehicle: water) turn out when `NC(CNC(=O)CBr)C(=O)O` (stereo unspecified) was run?
Its survivor count is 0 of 6 on day 15.

For `Nc1ncnc2c1ccn2C1OC(CO)C(O)C1O` (stereo unspecified), which T/C (dose: 1.0 mg/kg/injection, schedule: Q01DX010 (sc), vehicle: Klucel (hydroxypropylcellulose) (HPC), evaluated on day 11) is on record?
Its T/C is 143 % of control.

And the survivor count (dose: 8.0 mg/kg/injection, schedule: Q01DX010 (sc), vehicle: Klucel (hydroxypropylcellulose) (HPC))?
Its survivor count is 0 of 3 on day 11.

With `C[C@@H]1CC[C@]2(C)CC[C@]3(C)C(=CC[C@@H]4[C@@]5(C)CC[C@@H](OC(=O)c6ccc(O)cc6)C(C)(C)[C@@H]5C[C@H](O)[C@]43C)[C@@H]2[C@H]1C(=O)O` as the compound, how does the survivor count (dose: 5.0 mg/kg/injection, schedule: Q04DX004 (sc), vehicle: saline with Tween-80) read?
Its survivor count is 1 of 6 on day 15.

Source: PubChem BioAssay AID208 (DTP/NCI, 2004)
